Reference: the supplement of paper PMC3334620
Over roughly 33,000 sequences, “E-score (-0.5 to 0.5)” has its median near -0.015; the highest 2% begin near 0.3. The list shows a part of the results.

The sequences below were run against T1, Abf1 (UniProt P14164) (assay: PBM E-score (8-mer binding enrichment) (E-score (-0.5 to 0.5)); higher = stronger / more preferred TF binding). Conditions: protein concentration: 200 nM; construct: GST-full length.
T1 sequence: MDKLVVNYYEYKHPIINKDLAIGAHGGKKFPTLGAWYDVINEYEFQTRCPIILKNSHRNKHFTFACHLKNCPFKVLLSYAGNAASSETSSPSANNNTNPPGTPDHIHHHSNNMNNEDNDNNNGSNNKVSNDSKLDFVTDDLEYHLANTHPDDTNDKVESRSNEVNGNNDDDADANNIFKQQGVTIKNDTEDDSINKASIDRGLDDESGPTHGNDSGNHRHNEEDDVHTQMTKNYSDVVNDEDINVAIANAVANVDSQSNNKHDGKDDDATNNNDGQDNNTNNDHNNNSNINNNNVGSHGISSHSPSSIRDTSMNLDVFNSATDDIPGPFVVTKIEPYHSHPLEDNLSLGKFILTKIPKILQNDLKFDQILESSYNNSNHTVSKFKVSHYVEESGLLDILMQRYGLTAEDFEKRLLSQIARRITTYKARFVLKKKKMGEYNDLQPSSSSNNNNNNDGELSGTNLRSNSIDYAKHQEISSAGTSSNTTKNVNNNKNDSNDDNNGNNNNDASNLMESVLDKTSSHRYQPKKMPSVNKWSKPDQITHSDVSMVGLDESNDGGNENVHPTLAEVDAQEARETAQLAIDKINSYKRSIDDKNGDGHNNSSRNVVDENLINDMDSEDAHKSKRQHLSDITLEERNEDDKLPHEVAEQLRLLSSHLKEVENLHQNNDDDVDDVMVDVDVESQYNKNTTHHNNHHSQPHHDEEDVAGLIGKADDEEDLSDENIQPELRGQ
In short: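 For each ungapped eight-base word taken together with its reverse complement, the Universal PBM Analysis Suite assigned an E-score. Binding data came from GST-tagged yeast transcription factors, applied at about 100-200 nM, on universal all-10-mer Agilent arrays made double-stranded by primer extension. Fluorescent anti-GST marked bound protein, and scans were normalised with masliner.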
For GGTTAAAA, the “PBM E-score” value was 0.0506.
In the case of GTACAGAA, the “PBM E-score” value was 0.153.
CTCACGCC was tested, and the “PBM E-score” value was -0.185.
For AACCCGCC, the “PBM E-score” value was -0.0773.
GTGATGTA was tested, and the “PBM E-score” value was 0.399.
In the case of GGGAGACC, the “PBM E-score” value was -0.325.
In the case of GTCGCCCA, the “PBM E-score” value was -0.208.
In the case of ATATAGGG, the “PBM E-score” value was -0.112.
CACACTGA was tested, and the “PBM E-score” value was -0.0245.
In the case of AGATGTGG, the “PBM E-score” value was -0.173.
For AGCATGAC, the “PBM E-score” value was -0.0121.
With CTGAGTCC the “PBM E-score” value was -0.145.
For CTTGTCAC, the “PBM E-score” value was 0.357.
In the case of CGTGGGTA, the “PBM E-score” value was 0.0345.
For GAAAGGGC, the “PBM E-score” value was -0.17.
With AAGACAAG the “PBM E-score” value was 0.0955.
In the case of GCAAGTAC, the “PBM E-score” value was -0.0914.
For AATCGATC, the “PBM E-score” value was -0.0213.
In the case of GCAAGGCC, the “PBM E-score” value was -0.415.
With CGCTAACG the “PBM E-score” value was 0.243.
TTCTCCAA was tested, and the “PBM E-score” value was -0.0244.
In the case of AATTGTTC, the “PBM E-score” value was 0.181.
TAGTCTAA was tested, and the “PBM E-score” value was -0.183.
With CCGAGCGC the “PBM E-score” value was -0.144.
In the case of ATATCCAA, the “PBM E-score” value was 0.149.
With CCTAAACA the “PBM E-score” value was -0.224.
In the case of AGATGTAA, the “PBM E-score” value was 0.0924.
With CCCCTGAG the “PBM E-score” value was -0.24.
With CATACAGG the “PBM E-score” value was -0.0965.
With ATATCAAG the “PBM E-score” value was 0.148.
For ATAAAGCA, the “PBM E-score” value was 0.112.
In the case of CGGTCCAA, the “PBM E-score” value was -0.106.
For ACTGAGGG, the “PBM E-score” value was -0.184.
In the case of CTATCATC, the “PBM E-score” value was 0.151.
In the case of CGTGATCA, the “PBM E-score” value was 0.379.
With AGGAACTA the “PBM E-score” value was 0.0321.
For ATGCCAGG, the “PBM E-score” value was -0.254.
For ATAGGAAG, the “PBM E-score” value was -0.0411.
In the case of TCCACGGA, the “PBM E-score” value was 0.163.
In the case of ATATGCCC, the “PBM E-score” value was -0.0568.
With AATCGTTA the “PBM E-score” value was 0.177.
With GGCGCTGA the “PBM E-score” value was -0.0497.
In the case of ACATGTCG, the “PBM E-score” value was 0.0418.
With ATCATGGC the “PBM E-score” value was 0.12.
In the case of ACTATGGG, the “PBM E-score” value was -0.21.
ACTTGGTC was tested, and the “PBM E-score” value was -0.00376.
In the case of CCGCCACG, the “PBM E-score” value was -0.00933.
In the case of CACCGTTC, the “PBM E-score” value was 0.256.
For GTTTTCAA, the “PBM E-score” value was 0.118.
With GGAGCATA the “PBM E-score” value was 0.0153.
With AAGCATAC the “PBM E-score” value was -0.017.
With ACTGCCAC the “PBM E-score” value was -0.0933.
With AGTCGTCC the “PBM E-score” value was 0.142.
With AAAATGCG the “PBM E-score” value was -0.0811.
For CAAGGCGC, the “PBM E-score” value was -0.14.
ACTGAGCT was tested, and the “PBM E-score” value was -0.153.
CTGAGATA was tested, and the “PBM E-score” value was 0.126.
With AAAGACTT the “PBM E-score” value was -0.0275.
In the case of GTCAATGA, the “PBM E-score” value was -0.0247.
With GGGAAAGA the “PBM E-score” value was -0.112.
For GGGTGCAA, the “PBM E-score” value was -0.171.
With TAAAGATA the “PBM E-score” value was 0.22.
In the case of TAGTGCCA, the “PBM E-score” value was -0.05.
ACGCTAGA was tested, and the “PBM E-score” value was -0.233.
ACCGAGGA was tested, and the “PBM E-score” value was -0.112.
CTTCACTA was tested, and the “PBM E-score” value was 0.0206.
In the case of TATCCTAA, the “PBM E-score” value was 0.116.
For AAGCAGTC, the “PBM E-score” value was -0.165.
In the case of ACACCGGC, the “PBM E-score” value was -0.145.
CGACTGTA was tested, and the “PBM E-score” value was -0.0739.
For AGTATGTA, the “PBM E-score” value was -0.2.
For TAGTAAAA, the “PBM E-score” value was 0.0887.
In the case of ATCAAGTA, the “PBM E-score” value was 0.101.
ACAATCTG was tested, and the “PBM E-score” value was -0.0534.
For CCATACGA, the “PBM E-score” value was 0.283.
With ATACCTAC the “PBM E-score” value was 0.209.
With GAATTGCA the “PBM E-score” value was -0.13.
CCAGCTCC was tested, and the “PBM E-score” value was -0.268.
AGACTGCG was tested, and the “PBM E-score” value was -0.178.
For ACTCGAAC, the “PBM E-score” value was 0.0108.
GATGACCC was tested, and the “PBM E-score” value was 0.189.
AAGTTTAC was tested, and the “PBM E-score” value was -0.0254.
In the case of CTATGGAG, the “PBM E-score” value was -0.268.
With TATTCTGA the “PBM E-score” value was 0.0481.
In the case of AGACTGGG, the “PBM E-score” value was -0.198.
For ACACCGGG, the “PBM E-score” value was -0.16.
ATAGTTTA was tested, and the “PBM E-score” value was 0.0147.
For CTAGACGA, the “PBM E-score” value was 0.141.
For GCTTGAGA, the “PBM E-score” value was -0.11.
For AGTACGGC, the “PBM E-score” value was 0.224.
For CTCCGATA, the “PBM E-score” value was -0.223.
In the case of AGTTGTAA, the “PBM E-score” value was -0.0354.
With ATTTTATA the “PBM E-score” value was 0.247.
ACTAGCAC was tested, and the “PBM E-score” value was -0.125.
CCGGTGAC was tested, and the “PBM E-score” value was 0.227.
For ATGGTGAG, the “PBM E-score” value was -0.00969.
With GACCAGTC the “PBM E-score” value was -0.118.
AGGACAGA was tested, and the “PBM E-score” value was -0.0582.
AGCAATGG was tested, and the “PBM E-score” value was -0.16.
In the case of GCTTCTAC, the “PBM E-score” value was -0.0278.
For CTTGAATA, the “PBM E-score” value was 0.0765.
With GGAGGAGA the “PBM E-score” value was -0.314.
In the case of CAAATTGC, the “PBM E-score” value was -0.0248.
In the case of ACGCTGCT, the “PBM E-score” value was 0.0457.
GAACTAGA was tested, and the “PBM E-score” value was 0.0188.
With CCTCCCAA the “PBM E-score” value was -0.0844.
ATATGCTA was tested, and the “PBM E-score” value was -0.0264.
In the case of GCAAATAA, the “PBM E-score” value was 0.0284.
In the case of CGTCTCTA, the “PBM E-score” value was -0.0126.
With AACCTTCG the “PBM E-score” value was 0.0857.
With AACCGTCA the “PBM E-score” value was 0.0401.
For CTGGCGAC, the “PBM E-score” value was 0.0148.
With TTGTCAAA the “PBM E-score” value was -0.0739.
GTACTCAC was tested, and the “PBM E-score” value was 0.261.
For CCTTCAAA, the “PBM E-score” value was 0.0786.
With ATTCCCAG the “PBM E-score” value was 0.114.
AAGTAAAG was tested, and the “PBM E-score” value was -0.22.
TAGGTAGA was tested, and the “PBM E-score” value was -0.128.
In the case of GTATTAAA, the “PBM E-score” value was 0.229.
For CAGGCTGC, the “PBM E-score” value was -0.244.
In the case of CCTAACAA, the “PBM E-score” value was 0.101.
For CATCGCTC, the “PBM E-score” value was 0.0948.
With GGGTCCGA the “PBM E-score” value was -0.158.
With TAACGGTA the “PBM E-score” value was 0.12.
With TACTTTGA the “PBM E-score” value was 0.121.
For CCTGATAA, the “PBM E-score” value was 0.1.
CCCCTAAA was tested, and the “PBM E-score” value was -0.346.
With GGATCGCA the “PBM E-score” value was 0.0421.
With CCAGGAGA the “PBM E-score” value was -0.0792.
CATGGAGA was tested, and the “PBM E-score” value was 0.0883.
In the case of GTTTTGAA, the “PBM E-score” value was 0.0828.
For GGCGGTAA, the “PBM E-score” value was -0.0833.
In the case of AATGCGGG, the “PBM E-score” value was 0.0524.
CAGACATC was tested, and the “PBM E-score” value was 0.101.
ATGGAAGC was tested, and the “PBM E-score” value was -0.258.
ATTAGGAG was tested, and the “PBM E-score” value was -0.0794.
For ACAGTGAT, the “PBM E-score” value was 0.294.
CCGATAAC was tested, and the “PBM E-score” value was -0.00362.
For GGCGTACC, the “PBM E-score” value was -0.196.
In the case of AAGGTTCC, the “PBM E-score” value was -0.0986.
For CCAAGTGA, the “PBM E-score” value was 0.0334.
With ATCGCACC the “PBM E-score” value was -0.0624.
For CGGAAAGC, the “PBM E-score” value was -0.0608.
CATAGATA was tested, and the “PBM E-score” value was 0.06.
TTCGCGAA was tested, and the “PBM E-score” value was 0.0531.
For TCGATACA, the “PBM E-score” value was 0.132.
In the case of ATCTGCCC, the “PBM E-score” value was -0.189.
AAACTTAG was tested, and the “PBM E-score” value was 0.0351.
With AAAGTTAA the “PBM E-score” value was 0.222.
In the case of GTTGCCTA, the “PBM E-score” value was -0.155.
For CTGCCGCC, the “PBM E-score” value was -0.235.
CAAGTTGA was tested, and the “PBM E-score” value was -0.187.
With GACCATCA the “PBM E-score” value was -0.0399.
For CAATTCTC, the “PBM E-score” value was -0.068.
GATCTCGC was tested, and the “PBM E-score” value was 0.0902.
With ATTGTGTC the “PBM E-score” value was -0.035.
In the case of ACTTATAC, the “PBM E-score” value was 0.117.
In the case of AAGTAAGT, the “PBM E-score” value was -0.091.
With AACGGCAG the “PBM E-score” value was 0.132.
For GAGCGCTC, the “PBM E-score” value was -0.0308.
In the case of ATAGAAAG, the “PBM E-score” value was -0.158.
GTTGGACA was tested, and the “PBM E-score” value was 0.0476.
In the case of ATACCGCG, the “PBM E-score” value was -0.06.
With ATTTATTG the “PBM E-score” value was 0.0665.
AGTCGGAC was tested, and the “PBM E-score” value was -0.0189.
With TACTATGA the “PBM E-score” value was 0.176.
For ACAGATAG, the “PBM E-score” value was -0.227.
With ATGCACTC the “PBM E-score” value was -0.0272.
In the case of ATACCAAA, the “PBM E-score” value was 0.0398.
For CCCCGCCC, the “PBM E-score” value was -0.195.
With AACTTCTC the “PBM E-score” value was 0.0278.
With CCGATTTC the “PBM E-score” value was -0.122.
